Experimental data from PMC13469122, “Structural and mechanistic insights into primer synthesis initiation by DNA primase” (Nature Communications, 2026).
Numbering of substitutions follows the chain as printed. For at least one entry, the source does not settle the construct or the ends of the probe. For some of these results: A weaker result is weaker than the reference pair of the same experiment. For some of these results: At least one verdict rests on a figure or table, not on a statement of the authors. Protein sequences can lack the tags named with them.

Columns and labels:
[1] = biological target: T1, pRN1 primase (catalytic domain-linker-HBD) (Sulfolobus islandicus plasmid pRN1) (UniProt Q54324); experiment: NMR (E333 shift); conditions: not fully bound, 25 mM sodium phosphate, 50 mM NaCl, 10 mM MgCl2, pH 7.0, recombinant protein, residues 40-370, protein details: C-terminal His6, not cleaved, single-stranded DNA
T1 sequence (looked up): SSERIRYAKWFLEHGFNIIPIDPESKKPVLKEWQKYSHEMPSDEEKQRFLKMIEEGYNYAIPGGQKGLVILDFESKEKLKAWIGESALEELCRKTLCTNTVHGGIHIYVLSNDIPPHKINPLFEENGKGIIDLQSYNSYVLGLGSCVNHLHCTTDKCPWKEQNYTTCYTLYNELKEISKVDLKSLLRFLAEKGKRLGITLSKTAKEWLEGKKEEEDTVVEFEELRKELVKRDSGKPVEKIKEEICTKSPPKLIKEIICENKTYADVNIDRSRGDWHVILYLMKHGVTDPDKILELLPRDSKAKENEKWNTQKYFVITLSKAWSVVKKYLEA

[2] = biological target: T2, pRN1 primase helix bundle domain (HBD) (Sulfolobus islandicus plasmid pRN1) (UniProt Q54324); experiment: NMR (G3 imino); conditions: 25 mM sodium phosphate, 50 mM NaCl, 10 mM MgCl2, pH 7.0, recombinant protein, residues 256-370, single-stranded DNA
T2 sequence (looked up): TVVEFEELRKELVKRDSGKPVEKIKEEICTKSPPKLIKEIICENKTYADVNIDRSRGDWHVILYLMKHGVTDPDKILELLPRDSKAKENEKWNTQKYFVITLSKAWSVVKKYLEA

[3] = biological target: T1, pRN1 primase (catalytic domain-linker-HBD) (Sulfolobus islandicus plasmid pRN1); experiment: NMR; conditions: no Mg2+ (binds template less efficiently than with Mg2+); 25 mM sodium phosphate, 50 mM NaCl, 10 mM MgCl2, pH 7.0; recombinant protein; residues 40-370; protein details: C-terminal His6, not cleaved; single-stranded DNA
[4] = biological target: T3, pRN1 primase K195A (Sulfolobus islandicus plasmid pRN1) (UniProt Q54324); experiment: NMR; conditions: 2 ATP, then dGTP, 313 K, base-pair transfer to E-site impaired; 25 mM sodium phosphate, 50 mM NaCl, 10 mM MgCl2, pH 7.0; recombinant protein; residues 40-370; protein details: C-terminal His6, not cleaved; single-stranded DNA
T3 sequence (looked up): T1 sequence (looked up) with K156A

ACGTGCTCA [DNAAC]: binds more weakly ([1]; dATP, A-A mismatch); binds ([2]; GTP, A-G mismatch); binds ([2]; dATP, A-A mismatch).

CAGTGCTCA [DNACA]: binds more weakly ([1]; dATP, C-A mismatch).

CTGTGCTCA [DNACT]: binds more weakly ([1]; dCTP, C-C mismatch); binds more weakly [3]; binds [4].

GAGTGCTCA [DNAGA]: binds more weakly ([1]; dGTP, G-G mismatch); binds ([2]; dATP, G-A mismatch); binds ([2]; dGTP, G-G mismatch).

GCGTGCTCA [DNAGC]: binds more weakly ([1]; dATP, G-A mismatch); binds more weakly ([1]; dTTP, G-T mismatch).

TCGTGCTCA [DNATC]: binds more weakly ([1]; dCTP, T-C mismatch); binds more weakly ([1]; dTTP, T-T mismatch); binds ([2]; dATP, stable T-A pair). TCGTGCTCA [DNATC]: binds ([2]; dGTP, T-G mismatch).
